# Source: PubChem BioAssay AID2685 (National Center for Advancing Translational Sciences (NCATS), 2010)
# This is one part of the list. These are further read-outs of the screen, such as a control signal, another cell line or another target. No call is given for them. The list favours compounds with an active or inconclusive main result. The note in brackets gives the kind of curve behind each potency; many fits are weak.
# Test: qHTS Assay for Lipid Storage Modulators in Drosophila S3 Cells;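 as to cell number change: cells counted by Cell Tracker Red CMTPX staining in the red channel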
# Conditions: BODIPY lipid droplet fluorescence, 18-24 h; for cell number change: measured here: cell count max response, cells fed with added oleic acid
# How it was run: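 Drosophila S3 cells loaded with oleic acid (400 uM, as added) and compounds at several concentrations; lipid droplets imaged by 488-nm laser-scanning cytometry, 500–530 nm intensity and object ratio to cell channel. Percent activity normalized to 20 uM Triacsin C.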
# [1] = measured here: cell number channel AC50, cells fed with added oleic acid
# [2] = measured here: lipid fluorescence (Fed channel) AC50, cells fed with added oleic acid
structure (smiles),measurement,setting,value
COc1ccccc1NC(=O)C(C)OC(=O)CN1C(=O)C2CC=CCC2C1=O (configuration not stated),cell number change,,31.6%
C[C@H]1COc2c(N3CCN(C)CC3)c(F)cc3c(=O)c(C(=O)O)cn1c23,cell number change,,-32%
same,AC50,[1],"2.31 µM [falling, full curve]"
same,AC50,[2],"2.31 µM [falling, full curve]"
CC1CCCN(S(=O)(=O)c2ccc(NC(=O)CN3C(=O)NC(C)(c4ccccc4)C3=O)cc2)C1 (configuration not stated),AC50,[1],"6.51 µM [rising, single point]"
CN(C)CCNC(=O)c1cc2c(=O)n(C)c3ccccc3c2n1C,cell number change,,3.81%
same,AC50,[2],"0.517 µM [falling, single point]"
C/C(CC(=O)NC(C)c1ccccc1)=N\NC(N)=S (configuration not stated),cell number change,,-8.11%
same,AC50,[1],"6.51 µM [rising, single point]"
CC(C)Cc1ccc(C(C)C(=O)OCC(=O)c2c[nH]c3ccccc23)cc1 (configuration not stated),cell number change,,-66.6%
same,AC50,[1],"18.4 µM [falling, partial curve]"
same,AC50,[2],"0.651 µM [falling, partial curve, poor fit]"
CCC(NC(=O)OC(C)(C)C)C(=O)Oc1ccc2c3c(c(=O)oc2c1)CCC3 (configuration not stated),cell number change,,16.2%
same,AC50,[2],"6.51 µM [falling, single point]"
COc1cccc(NC(=O)CN(C)C(=O)CNC(=O)c2sc3ccccc3c2Cl)c1,cell number change,,3.07%
CC(=O)Nc1ccc(S(=O)(=O)NNC(=O)c2ccc(S(=O)(=O)N3CCCCC3)cc2)cc1,cell number change,,22.1%
same,AC50,[2],"0.58 µM [falling, single point]"
CCn1c(SCC(=O)N2CCCC(C)C2)nc2c1c(=O)n(C)c(=O)n2C (configuration not stated),cell number change,,7.89%
same,AC50,[2],"35.5 µM [rising, single point]"
CCCCC(CC)C(=O)Nc1ccccc1C(=O)NC(C)C (configuration not stated),cell number change,,7.5%
same,AC50,[2],"0.00517 µM [rising, full curve, poor fit]"
CC(=O)Nc1ccc(Oc2nc(-c3ccccn3)nc3ccccc23)cc1,cell number change,,-23.3%
same,AC50,[2],"23.1 µM [falling, single point]"
COc1ccccc1CNC(=O)N1CCN(c2ccccc2)CC1,cell number change,,17.1%
Cc1ccc(OCCNC(=O)CCC(=O)N2CCOCC2)cc1,cell number change,,14.7%
same,AC50,[2],"8.2 µM [rising, partial curve]"
CCCN(CC1CC1)C(=O)CSc1nnc(-c2cc(-c3cccs3)nc3ccccc23)o1,cell number change,,75.4%
same,AC50,[1],"18.4 µM [rising, single point]"
C=CCc1c(C)nc(C)nc1N/N=C/c1ccccc1,cell number change,,59.4%
same,AC50,[1],"13 µM [rising, partial curve]"
same,AC50,[2],"3.26 µM [rising, single point]"
COc1ccc(NC(=O)CN(c2cc(C)cc(C)c2)S(=O)(=O)c2c(C)noc2C)cc1OC,cell number change,,-20.7%
same,AC50,[2],"18.4 µM [falling, single point]"
Cc1nc2scc(C)n2c(=O)c1S(=O)(=O)N1CCN(c2ccc(F)cc2)CC1,cell number change,,-43%
same,AC50,[1],"32.6 µM [falling, single point]"
same,AC50,[2],"0.58 µM [falling, single point]"
CCn1c(COc2ccc3c(c2)OCO3)nnc1SCC(=O)c1ccccc1,cell number change,,-30.1%
same,AC50,[1],"29.1 µM [falling, single point]"
COc1cccc(C(C)NC(=O)C2CCCC2)c1 (configuration not stated),cell number change,,2.65%
O=C(COc1ccc2c(c1)oc(=O)c1ccccc12)NC(Cc1ccc(Cl)cc1)C(=O)O (configuration not stated),cell number change,,11.5%
same,AC50,[2],"2.91 µM [rising, single point]"
Cc1cc(C(=O)Nc2sc3c(c2C#N)CCC(C(C)(C)C)C3)no1 (configuration not stated),cell number change,,33.3%
same,AC50,[1],"29.1 µM [rising, single point]"
CC(C)Oc1ccc(Cc2cnc(=S)[nH]c2N)cc1,cell number change,,44.5%
same,AC50,[2],"6.51 µM [falling, single point]"
CC(C)Sc1ccc([N+](=O)[O-])cc1C(=O)Nc1ccncc1,cell number change,,17.8%
same,AC50,[1],"1.64 µM [rising, partial curve, poor fit]"
same,AC50,[2],"0.517 µM [rising, partial curve, poor fit]"
COCCCNC(=O)c1cc(Sc2nnc(C)s2)nc2ccccc12,cell number change,,31.8%
same,AC50,[1],"2.59 µM [rising, full curve]"
same,AC50,[2],"6.51 µM [rising, partial curve, poor fit]"
Cc1noc(C)c1S(=O)(=O)N1CCCC(C(=O)N2CCc3ccccc3C2)C1 (configuration not stated),cell number change,,-8.47%
same,AC50,[2],"1.46 µM [rising, partial curve, poor fit]"
COc1ccccc1-c1cc(C(=O)N2CCN(c3ccccc3OC)CC2)no1,cell number change,,-44%
same,AC50,[1],"2.06 µM [falling, partial curve]"
same,AC50,[2],"3.66 µM [falling, partial curve]"
CC(OC(=O)c1ccccc1Nc1ccc(SC(F)F)cc1)C(N)=O (configuration not stated),cell number change,,-37.2%
same,AC50,[1],"32.6 µM [falling, single point]"
Cn1ccc(C(=O)Nc2cccnc2Cl)n1,cell number change,,-38.1%
same,AC50,[1],"0.164 µM [falling, full curve]"
same,AC50,[2],"29.1 µM [rising, single point]"
COCCn1c(=S)[nH]c2ncccc2c1=O,cell number change,,5.66%
FC(F)(F)C1=CC(c2ccc(Cl)cc2)=NCCN1,cell number change,,16.3%
same,AC50,[2],"0.146 µM [falling, full curve, poor fit]"
O=C(CSc1nc(O)c(C2CCCCC2)c(=O)[nH]1)Nc1ccccc1Cl,cell number change,,6.25%
same,AC50,[2],"1.16 µM [rising, single point]"
Cn1c(=O)oc2cc(S(=O)(=O)Nc3cccc(C(=O)O)c3)ccc21,cell number change,,-3.02%
same,AC50,[2],"8.2 µM [falling, partial curve]"
CCOc1ccc(NC(=O)CCNS(=O)(=O)c2cccc3nonc23)cc1,cell number change,,31.2%
same,AC50,[2],"0.116 µM [rising, full curve, poor fit]"
CCCC(C)NC(=O)c1cccc(Oc2ccccc2)c1 (configuration not stated),cell number change,,-48.3%
same,AC50,[2],"18.4 µM [falling, partial curve, poor fit]"
COCCN1C(=O)N(c2cccc(C)c2)C(=O)C1CC(=O)Nc1ccc(OC)cc1 (configuration not stated),cell number change,,-8.56%
same,AC50,[2],"29.1 µM [rising, single point]"
CCOC(=O)N1CCN(C(=S)Nc2ccccc2C)CC1,AC50,[2],"29.1 µM [falling, single point]"
CCOC(=O)[C@@H]1[C@H]2COc3cc(OC)ccc3[C@@H]2N2C(=O)N(c3cccc(F)c3)C(=O)[C@@]12C,cell number change,,-2.4%
same,AC50,[2],"7.31 µM [rising, partial curve]"

# Some of the entries above, reformatted.
structure (smiles)	measurement	setting	value
Cc1ccc(OCCNC(=O)CCC(=O)N2CCOCC2)cc1	cell number change		14.7%
CCCN(CC1CC1)C(=O)CSc1nnc(-c2cc(-c3cccs3)nc3ccccc23)o1	cell number change		75.4%
O=C(COc1ccc2c(c1)oc(=O)c1ccccc12)NC(Cc1ccc(Cl)cc1)C(=O)O (configuration not stated)	AC50	[2]	2.91 µM [rising, single point]
COCCCNC(=O)c1cc(Sc2nnc(C)s2)nc2ccccc12	cell number change		31.8%
COCCN1C(=O)N(c2cccc(C)c2)C(=O)C1CC(=O)Nc1ccc(OC)cc1 (configuration not stated)	cell number change		-8.56%
